Test results: the supplement of paper PMC3334620
The full ranking holds about 33,000 sequences; the median of “E-score (-0.5 to 0.5)” is about -8e-05, and the highest 2% start at about 0.23. This is one part of the list.

target: T1, Nrg2 (UniProt P38082); experiment: PBM E-score (8-mer binding enrichment) (E-score (-0.5 to 0.5)); higher = stronger / more preferred TF binding; settings: protein concentration: 100 nM; construct: GST-full length
T1 sequence: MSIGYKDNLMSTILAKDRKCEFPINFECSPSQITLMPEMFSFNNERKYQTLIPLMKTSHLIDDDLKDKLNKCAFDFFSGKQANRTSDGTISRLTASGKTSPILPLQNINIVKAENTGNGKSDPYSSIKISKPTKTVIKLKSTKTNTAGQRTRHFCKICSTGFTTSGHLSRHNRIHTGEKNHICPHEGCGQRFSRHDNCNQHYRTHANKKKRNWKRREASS
Outline: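 PURExpress in vitro transcription/translation supplied GST-tagged yeast transcription factors, either full-length or DNA-binding domain. Applied at about 100-200 nM to universal all-10-mer Agilent arrays double-stranded by primer extension, the bound protein was detected with fluorescent anti-GST. E-scores, modified Wilcoxon-Mann-Whitney statistics, were given by the Universal PBM Analysis Suite to ungapped eight-base words pooled with their reverse complements after masliner normalisation.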

| Sequence | PBM E-score |
| --- | --- |
| CAAATGAG | -0.129 |
| GAACGGAA | 0.0643 |
| ACCGGAAT | -0.0361 |
| GATAGAGA | -0.0171 |
| AATATTGG | 0.0451 |
| CGGATGCC | 0.0429 |
| AGCCCGTC | -0.283 |
| AAAACGAA | 0.139 |
| AATGGTTG | 0.0582 |
| ACAGACGT | -0.142 |
| GCCACCCC | -0.255 |
| TGAAGTCA | 0.0147 |
| CATTGATA | 0.0883 |
| CACATATA | 0.0706 |
| CACGACAG | 0.0324 |
| GCCTATTA | 0.16 |
| CCCTGGAC | 0.295 |
| AATTCTCC | 0.118 |
| CATGAACA | -0.0371 |
| ACCACTAA | 0.0789 |
| AAGGTGGT | -0.062 |
| ACGACAAT | 0.093 |
| ATTAGAGA | 0.0159 |
| CGAACAAG | 0.165 |
| CCAGTCAG | -0.0932 |
| GCATGATA | 0.0399 |

| Sequence | PBM E-score |
| --- | --- |
| AGTGTGTC | 0.0992 |
| GTCCGAAA | 0.179 |
| ACACCCGT | -0.124 |
| GGGCTATA | -0.17 |
| CGCAAGGA | 0.163 |
| CGCGGAGC | -0.0754 |
| GGTTTGAA | 0.188 |
| CATAGTGC | -0.0272 |
| AAGTTAGC | 0.0798 |
| ATATTCCG | 0.118 |
| TGTGCACA | -0.26 |
| CCGTTAGA | -0.0454 |
| GCAGACGA | 0.0406 |
| ATACGACG | 0.0344 |
| CAACGTAG | -0.0459 |
| CTGACCCA | -0.0958 |
| CGCTCTTA | 0.18 |
| GCGGCACC | -0.0541 |
| GCAAGTTA | 0.175 |
| GCTGCGAC | -0.0909 |
| CCCGTTGC | -0.0994 |
| CCGACGTC | 0.0192 |
| TAGAGATA | 0.0396 |
| CATACTAA | 0.114 |
| CTGGGCAC | -0.168 |
| CTATTCTC | 0.118 |

3 entries drawn at random from those above:

| Sequence | PBM E-score |
| --- | --- |
| CCCGTTGC | -0.0994 |
| CCGACGTC | 0.0192 |
| TAGAGATA | 0.0396 |

Next entries:

| Sequence | PBM E-score |
| --- | --- |
| ACTGATAA | 0.114 |
| ACTCCTCT | -0.04 |
| ATCTGTCC | -0.0644 |
| AAGGAAAT | 0.112 |
| CGGCTTAC | -0.0785 |
| AGGCAGGA | -0.0909 |
| GTGCCGAA | 0.0374 |
| CGCAGCAG | -0.0325 |
| AGTTGTAC | 0.103 |
| CGAGAGTC | -0.226 |
| AAGAACAG | 0.0826 |
| CCATGGAG | -0.0379 |
| CAAAGAAG | -0.0586 |
| GACAGAAA | 0.116 |
| AGCGGGTC | -0.21 |
| GACAGCAC | 0.0717 |
| CTCACGAA | -0.0171 |
| AAATTGAA | -0.0553 |
| AGGAGGGG | -0.065 |
| AACTCGCA | 0.0422 |
| GCACATTA | 0.047 |
| AAGAGAAC | 0.0193 |
| CCTAGCCA | -0.0877 |
| ATATGGGA | 0.0558 |
| GATACTCC | 0.143 |
| AGCGAATC | 0.00088 |

| Sequence | PBM E-score |
| --- | --- |
| AAACAGTC | -0.0566 |
| CAGTATAA | 0.16 |
| GCCTAGAC | -0.271 |
| CGAGTCGA | 0.0562 |
| TCGTTTCA | 0.171 |
| CGGGAGAG | -0.137 |
| ACATTGCC | -0.0505 |
| GATACCAA | 0.215 |
| CTTGACGA | -0.137 |
| CATCGCGC | 0.0459 |
| AATAATAG | 0.0626 |
| GCCTACGC | -0.19 |
| CTCGCAAC | 0.0442 |
| ACGTGGTA | -0.0632 |
| CAAAAAAG | 0.116 |
| AAAGTATG | 0.0248 |
| CCCACGCA | 0.08 |
| ATTAATCC | 0.0528 |
| TCTGCTAA | -0.0809 |
| AGTTAATG | 0.078 |
| ACGTGGTC | -0.0753 |
| CTTGCTAC | -0.00165 |
| ACTGGATA | 0.168 |
| AACCCCGT | 0.194 |
| ACACTTAA | -0.0242 |
| ATGTAGGG | -0.0877 |

Given field by field: part of the list above
CGGGAGAG
  PBM E-score: -0.137
ACATTGCC
  PBM E-score: -0.0505
GATACCAA
  PBM E-score: 0.215
